{"sequences": {"note": "Protein sequences, listed by entry. Tags and fused reporters are not part of them. Lines headed by an entry give the natural chain unless they say otherwise; changes in a name come on top.", "UniProt P38398": "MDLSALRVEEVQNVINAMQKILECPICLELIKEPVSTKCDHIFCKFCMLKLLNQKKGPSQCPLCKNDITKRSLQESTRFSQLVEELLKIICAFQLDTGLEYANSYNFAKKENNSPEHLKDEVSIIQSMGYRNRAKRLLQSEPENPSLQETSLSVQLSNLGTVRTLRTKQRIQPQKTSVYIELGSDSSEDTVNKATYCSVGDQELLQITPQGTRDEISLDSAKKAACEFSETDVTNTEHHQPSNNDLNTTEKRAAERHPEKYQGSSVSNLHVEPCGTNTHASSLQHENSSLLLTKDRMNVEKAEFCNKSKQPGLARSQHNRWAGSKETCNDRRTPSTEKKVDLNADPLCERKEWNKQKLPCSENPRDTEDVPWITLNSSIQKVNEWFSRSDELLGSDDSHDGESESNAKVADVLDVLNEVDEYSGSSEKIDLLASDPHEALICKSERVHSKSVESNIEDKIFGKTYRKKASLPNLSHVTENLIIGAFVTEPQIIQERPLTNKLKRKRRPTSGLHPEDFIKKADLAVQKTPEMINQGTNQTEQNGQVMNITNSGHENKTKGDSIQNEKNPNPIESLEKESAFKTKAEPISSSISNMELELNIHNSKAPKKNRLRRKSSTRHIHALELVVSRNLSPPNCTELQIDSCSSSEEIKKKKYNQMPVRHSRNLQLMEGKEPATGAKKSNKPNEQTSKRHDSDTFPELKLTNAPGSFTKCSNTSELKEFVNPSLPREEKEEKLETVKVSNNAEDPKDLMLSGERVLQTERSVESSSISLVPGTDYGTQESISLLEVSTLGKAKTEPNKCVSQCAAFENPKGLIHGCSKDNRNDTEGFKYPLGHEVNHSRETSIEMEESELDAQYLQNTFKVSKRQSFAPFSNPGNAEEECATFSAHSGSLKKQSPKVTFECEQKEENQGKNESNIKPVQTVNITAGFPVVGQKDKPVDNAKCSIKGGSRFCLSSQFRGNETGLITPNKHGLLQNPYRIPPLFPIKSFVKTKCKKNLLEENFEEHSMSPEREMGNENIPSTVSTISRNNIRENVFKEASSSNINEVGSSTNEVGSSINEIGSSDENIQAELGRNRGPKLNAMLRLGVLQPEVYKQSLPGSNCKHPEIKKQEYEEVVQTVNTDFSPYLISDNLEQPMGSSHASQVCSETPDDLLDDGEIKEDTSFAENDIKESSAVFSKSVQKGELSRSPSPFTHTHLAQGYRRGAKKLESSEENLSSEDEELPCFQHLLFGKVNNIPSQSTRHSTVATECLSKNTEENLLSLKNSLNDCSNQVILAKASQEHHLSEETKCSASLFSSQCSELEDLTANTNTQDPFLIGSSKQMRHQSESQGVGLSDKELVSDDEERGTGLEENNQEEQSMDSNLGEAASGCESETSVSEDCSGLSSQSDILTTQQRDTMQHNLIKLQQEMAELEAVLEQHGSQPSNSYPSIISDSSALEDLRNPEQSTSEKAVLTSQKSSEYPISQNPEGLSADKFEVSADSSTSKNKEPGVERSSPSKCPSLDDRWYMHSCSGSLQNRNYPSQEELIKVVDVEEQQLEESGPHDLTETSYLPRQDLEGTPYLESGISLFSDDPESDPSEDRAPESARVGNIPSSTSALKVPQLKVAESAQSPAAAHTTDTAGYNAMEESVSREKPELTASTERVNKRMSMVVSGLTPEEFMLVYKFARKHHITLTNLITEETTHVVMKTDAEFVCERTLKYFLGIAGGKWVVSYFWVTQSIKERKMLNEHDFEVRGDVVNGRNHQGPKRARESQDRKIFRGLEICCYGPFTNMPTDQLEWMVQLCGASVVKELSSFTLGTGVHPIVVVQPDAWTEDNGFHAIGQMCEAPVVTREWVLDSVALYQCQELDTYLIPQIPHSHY"}, "source": "paper PMC5789026", "key": {"[1]": {"molecular_target": "T1, cleavage stimulation factor 50 (CstF-50) (human (endogenous in HeLa)) (UniProt Q05048)", "T1 sequence": "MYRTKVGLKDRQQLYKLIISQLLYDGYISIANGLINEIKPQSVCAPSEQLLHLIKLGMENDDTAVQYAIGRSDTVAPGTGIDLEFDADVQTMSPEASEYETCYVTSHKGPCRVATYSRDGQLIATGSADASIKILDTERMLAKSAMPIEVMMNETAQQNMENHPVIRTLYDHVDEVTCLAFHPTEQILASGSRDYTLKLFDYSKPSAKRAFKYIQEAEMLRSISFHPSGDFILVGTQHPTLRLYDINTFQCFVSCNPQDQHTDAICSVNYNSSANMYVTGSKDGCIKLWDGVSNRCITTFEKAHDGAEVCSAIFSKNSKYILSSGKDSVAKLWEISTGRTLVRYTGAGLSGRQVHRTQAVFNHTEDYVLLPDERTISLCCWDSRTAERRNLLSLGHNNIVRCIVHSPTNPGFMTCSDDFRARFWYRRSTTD", "test": "co-IP; endogenous IP with anti-CstF-50 from HeLa nuclear extracts (100 ug total protein), cells untreated or UV (40 J m^-2, 2 h recovery); samples treated with RNase A; immunoblot"}, "[2]": {"molecular_target": "T2, GST-CstF-50 (UniProt Q05048)", "T2 sequence": "T1 sequence", "test": "pull-down; GST-CstF-50 on glutathione beads incubated with 1 ug His-p97, and His-p97 on nickel beads incubated with GST-CstF-50; recombinant proteins treated with RNase A; Western blot; both purified"}, "[3]": {"molecular_target": "ubiquitin escort factor p97 (human (endogenous in HeLa)) (UniProt P55072)", "test": "co-IP; endogenous IP with anti-p97 from HeLa nuclear extracts (100 ug total protein), cells untreated or UV (40 J m^-2, 2 h recovery); samples treated with RNase A; immunoblot"}}, "note": "No constants are given. Whether binding was seen depends on the method and setting. For some of these results: In cells and extracts the contact can be indirect. Some entries that bind do so weakly or less than the wild type. For some of these results: Tags and fused reporters may be left off the sequences shown."}
{"substance": "BRCA1/BARD1 heterodimer (endogenous) (from UniProt P38398 1-1863; Q99728 1-777) (complex)", "values": [{"measurement": "binding", "setting": "[1]", "result": "binds"}]}
{"substance": "His-p97 (from UniProt P55072 1-806)", "values": [{"measurement": "binding", "setting": "[2]", "result": "binds"}]}
{"substance": "cleavage stimulation factor 50 (CstF-50) (from UniProt Q05048 1-431)", "values": [{"measurement": "binding", "setting": "[3]", "result": "binds"}]}
{"substance": "ubiquitin escort factor p97 (from UniProt P55072 1-806)", "values": [{"measurement": "binding", "setting": "[1]", "result": "binds"}]}
